Reference: patent publication US10654896B2, “FoxP3-binding peptides and uses thereof” (FUNDACIÓN PARA LA INVESTIGACIÓN MÉDICA APLICADA, priority 2016, dated 2020)
Part of at least one peptide drawing is inferred or uncertain, most often the ends.

Molecular target: T1, human FOXP3 (FOXP3-6His) (Homo sapiens, UniProt Q9BZS1)
T1 construct: 6xHis (C); made in house; host or cells: E. coli BL21 (DE3)
T1 sequence (Q9BZS1 1-431): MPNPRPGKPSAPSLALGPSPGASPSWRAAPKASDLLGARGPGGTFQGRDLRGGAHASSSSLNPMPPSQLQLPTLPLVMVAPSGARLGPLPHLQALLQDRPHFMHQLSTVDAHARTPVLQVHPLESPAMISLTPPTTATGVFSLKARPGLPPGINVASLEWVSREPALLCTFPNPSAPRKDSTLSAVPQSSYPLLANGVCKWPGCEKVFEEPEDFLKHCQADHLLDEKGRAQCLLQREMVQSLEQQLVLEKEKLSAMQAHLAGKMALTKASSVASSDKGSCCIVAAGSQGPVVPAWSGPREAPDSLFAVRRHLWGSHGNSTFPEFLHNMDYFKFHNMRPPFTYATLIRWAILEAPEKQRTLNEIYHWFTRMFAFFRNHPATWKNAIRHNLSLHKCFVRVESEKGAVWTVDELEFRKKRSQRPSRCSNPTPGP
Test: Peptide binding to FOXP3 by surface plasmon resonance (SPR)
Conditions: peptides 1-20 μM; ratio to p60 (SEQ ID NO: 1)
Text: Plasmid pET20b FOXP3-His was generated to produce the human FOXP3 tagged with 6 histidines at the C terminus of the protein. Briefly, plasmid pDEST15-FOXP3 (provided by Dr. Casal, Madrid, Spain) was used as template to amplify FOXP3 by PCR using the primers Upper FOXP3 Ndel catatgcccaaccccaggc (SEQ ID NO: 55) and Lower FOXP3 […] (SEQ ID NO: 56). The resulting fragment was subcloned in pET20b at Ndel and NotI sites. pET45b His-Runx1 was obtained by PCR of activated human CD4 T cells obtained from healthy volunteers (after the signature of an informed consent) using the primers Upper Runx1 atgcgtatccccgtagatg (SEQ ID NO: 57) and Lower Runx1 […] (SEQ ID NO: 58) and the fragment was cloned in pcDNA3.1. Then, pET45b and pcDNA3.1-Runx1 were digested with BamHI and NotI and ligated to obtain pET45b-Runx1. Plasmids were used to transform BL21 cells (DE3; Novagen, Schwalbach, Germany) for the expression of the recombinant protein. The transformed BL21 cells were grown in LB medium at 37° C. (1 liter of final culture medium) (with ampicilin 0.1 mg/ml). Once the OD of the culture was between 0.5 and 1.0, IPTG (0.4 mM, final concentration) was added. […] The eluted proteins were desalted using Hitrap desalting columns (Pharmacia) and analyzed by SDS-PAGE using Coomassie blue (Bio-Safe Coomassie reagent; Bio-Rad, Hercules, Calif.) and by Western blot. […]

SMILES | Binding to Foxp3 Ratio binding Peptide/p60 (fold change)
CSCC[C@@H]1NC(=O)[C@H](C)NC(=O)[C@H](Cc2ccccc2)NC(=O)[C@H](Cc2ccccc2)NC(=O)[C@@H]2CCCN2C(=O)[C@H](Cc2c[nH]c3ccccc23)NC(=O)[C@H](CCSC)NC(=O)[C@H](CCCCN)NC(=O)[C@H](CCCNC(=N)N)NC(=O)[C@H](Cc2ccccc2)NC(=O)[C@H](C)NC(=O)[C@H](CCC(N)=O)NC(=O)[C@H](Cc2ccccc2)NC(=O)[C@@H](C)NC(=O)[C@H](CCCNC(=N)N)NCCCNC1=O [compound 52] | 13.0
CSCC[C@@H]1NC(=O)[C@H](C)NC(=O)[C@H](Cc2ccccc2)NC(=O)[C@H](Cc2ccccc2)NC(=O)[C@@H]2CCCN2C(=O)[C@H](Cc2c[nH]c3ccccc23)NC(=O)[C@H](CCSC)NC(=O)[C@H](CCCCN)NC(=O)[C@H](CCCNC(=N)N)NC(=O)[C@H](Cc2ccccc2)NC(=O)[C@H](C)NC(=O)[C@H](CCC(N)=O)NC(=O)[C@H](Cc2ccccc2)NC(=O)[C@@H](C)NC(=O)[C@H](CCCNC(=N)N)NCCOCCNC1=O [compound 54] | 25.3
